From PubChem BioAssay record AID504749 (NCATS, 2011).

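Malaria parasite (P. falciparum) lines kept in red blood cells; parasite DNA is measured by SYBR Green fluorescence after lysis, 72 h after compound addition. Each compound was titrated across a series from about 0.000037 to 29 µM. The number is the fitted AC50, the concentration giving a half-maximal change in signal; a lower value means higher potency, whether the curve shows a decrease or an increase. Calls follow the curve class and fit quality: every row here is inconclusive, covering signal-raising curves and weak, poorly fitted, partial or highest-dose-only inhibition curves.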

Values are in µM. Every entry below has the call inconclusive. These entries are mostly ones the record files as inconclusive; other results of the assay are not listed here. Potencies fitted to partial, single-point or poorly fitting curves are rough. Some entries filed as inconclusive have a full curve. The first word of each remark tells which way the curve ran; it can be opposite to the aim of the assay.

| # | Compound | tested on / at | fitted potency (µM) | curve as filed |
|---|---|---|---|---|
| 1 | `CC(C)(C)NC[C@@H](O)COc1ccccc1C1CCCC1` | CP268 | 7.208 | inhibitor, single point |
| 2 | `CC(C)(C)NC[C@@H](O)COc1ccccc1C1CCCC1` | CP315 | 8.087 | inhibitor, single point |
| 3 | `CC(C)(C)NC[C@@H](O)COc1ccccc1C1CCCC1` | CP266 | 7.208 | inhibitor, partial curve, poor fit |
| 4 | `CC(C)(C)NC[C@@H](O)COc1ccccc1C1CCCC1` | CP211 | 6.424 | inhibitor, single point |
| 5 | `CC(C)(C)NC[C@@H](O)COc1ccccc1C1CCCC1` | CP262 | 8.087 | inhibitor, single point |
| 6 | `CC(C)(C)NC[C@@H](O)COc1ccccc1C1CCCC1` | CP247 | 3.548 | inhibitor, single point |
| 7 | `CC(C)(C)NC[C@@H](O)COc1ccccc1C1CCCC1` | CP191 | 7.08 | inhibitor, single point |
| 8 | `CC(C)(C)NC[C@@H](O)COc1ccccc1C1CCCC1` | DFO2036 | 5.012 | inhibitor, single point |
| 9 | `CC(C)(C)NC[C@@H](O)COc1ccccc1C1CCCC1` | C2A | 3.548 | inhibitor, single point |
| 10 | `CC(C)(C)NC[C@@H](O)COc1ccccc1C1CCCC1` | CP329 | 5.726 | inhibitor, partial curve |
| 11 | `CC(C)(C)NC[C@@H](O)COc1ccccc1C1CCCC1` | CP250 | 3.981 | inhibitor, single point |
| 12 | `CC(C)(C)NC[C@@H](O)COc1ccccc1C1CCCC1` | 3D7 | 7.08 | inhibitor, single point |
| 13 | `CC(C)(C)NC[C@@H](O)COc1ccccc1C1CCCC1` | CP201 | 7.208 | inhibitor, single point |
| 14 | `CC(C)(C)NC[C@@H](O)COc1ccccc1C1CCCC1` | FAB9 | 3.981 | inhibitor, single point |
| 15 | `CC(C)(C)NC[C@@H](O)COc1ccccc1C1CCCC1` | CP305 | 5.103 | inhibitor, single point |
| 16 | `Cc1ccc(C(C)C)cc2c(C)ccc1-2` | DIV14 | 15.1 | inhibitor, partial curve, poor fit |
| 17 | `Cc1ccc(C(C)C)cc2c(C)ccc1-2` | 7G8 | 10 | inhibitor, single point |
| 18 | `Cc1ccc(C(C)C)cc2c(C)ccc1-2` | CP215 | 19.01 | inhibitor, single point |
| 19 | `Cc1ccc(C(C)C)cc2c(C)ccc1-2` | DIV30 | 10.69 | inhibitor, partial curve, poor fit |
| 20 | `O=c1[nH]c2ccccc2n1C1CCN(CCCC(c2ccc(F)cc2)c2ccc(F)cc2)CC1` | CP211 | 0.012 | inhibitor, full curve, poor fit |
| 21 | `O=c1[nH]c2ccccc2n1C1CCN(CCCC(c2ccc(F)cc2)c2ccc(F)cc2)CC1` | CP256 | 12.59 | inhibitor, single point |
| 22 | `O=c1[nH]c2ccccc2n1C1CCN(CCCC(c2ccc(F)cc2)c2ccc(F)cc2)CC1` | CP325 | 0.6012 | inhibitor, partial curve, poor fit |
| 23 | `O=c1[nH]c2ccccc2n1C1CCN(CCCC(c2ccc(F)cc2)c2ccc(F)cc2)CC1` | P93_24 | 2.512 | inhibitor, full curve |
| 24 | `O=c1[nH]c2ccccc2n1C1CCN(CCCC(c2ccc(F)cc2)c2ccc(F)cc2)CC1` | CP194 | 0.0239 | inhibitor, full curve |
| 25 | `O=c1[nH]c2ccccc2n1C1CCN(CCCC(c2ccc(F)cc2)c2ccc(F)cc2)CC1` | CP297 | 19.01 | inhibitor, single point |
| 26 | `O=c1[nH]c2ccccc2n1C1CCN(CCCC(c2ccc(F)cc2)c2ccc(F)cc2)CC1` | TAB165 | 3.162 | inhibitor, single point |
| 27 | `O=c1[nH]c2ccccc2n1C1CCN(CCCC(c2ccc(F)cc2)c2ccc(F)cc2)CC1` | PC26 | 3.793 | inhibitor, single point |
| 28 | `O=c1[nH]c2ccccc2n1C1CCN(CCCC(c2ccc(F)cc2)c2ccc(F)cc2)CC1` | CP191 | 3.981 | inhibitor, single point |
| 29 | `O=c1[nH]c2ccccc2n1C1CCN(CCCC(c2ccc(F)cc2)c2ccc(F)cc2)CC1` | 7G8 | 3.162 | activator |
| 30 | `O=c1[nH]c2ccccc2n1C1CCN(CCCC(c2ccc(F)cc2)c2ccc(F)cc2)CC1` | CP269 | 1.51 | inhibitor, partial curve, poor fit |
| 31 | `O=c1[nH]c2ccccc2n1C1CCN(CCCC(c2ccc(F)cc2)c2ccc(F)cc2)CC1` | AS120 | 2.512 | inhibitor, partial curve |
| 32 | `O=c1[nH]c2ccccc2n1C1CCN(CCCC(c2ccc(F)cc2)c2ccc(F)cc2)CC1` | parasite line A | 3.981 | inhibitor, single point |
| 33 | `O=c1[nH]c2ccccc2n1C1CCN(CCCC(c2ccc(F)cc2)c2ccc(F)cc2)CC1` | CP315 | 1.694 | inhibitor, partial curve, poor fit |
| 34 | `O=c1[nH]c2ccccc2n1C1CCN(CCCC(c2ccc(F)cc2)c2ccc(F)cc2)CC1` | N140 | 3.548 | inhibitor, partial curve |
| 35 | `O=C(O[C@H]1CN2CCC1CC2)N1CCc2ccccc2[C@@H]1c1ccccc1` | PC15 | 3.548 | inhibitor, partial curve |
| 36 | `O=C(O[C@H]1CN2CCC1CC2)N1CCc2ccccc2[C@@H]1c1ccccc1` | DIV30 | 13.46 | inhibitor, partial curve |
| 37 | `O=C(O[C@H]1CN2CCC1CC2)N1CCc2ccccc2[C@@H]1c1ccccc1` | CP247 | 1.995 | inhibitor, full curve |
| 38 | `O=C(O[C@H]1CN2CCC1CC2)N1CCc2ccccc2[C@@H]1c1ccccc1` | CP215 | 8.492 | inhibitor, partial curve |
| 39 | `O=C(O[C@H]1CN2CCC1CC2)N1CCc2ccccc2[C@@H]1c1ccccc1` | CP191 | 11.22 | inhibitor, single point |
| 40 | `O=C(O[C@H]1CN2CCC1CC2)N1CCc2ccccc2[C@@H]1c1ccccc1` | CP194 | 7.569 | inhibitor, partial curve, poor fit |
| 41 | `O=C(O[C@H]1CN2CCC1CC2)N1CCc2ccccc2[C@@H]1c1ccccc1` | PC26 | 5.358 | inhibitor, partial curve |
| 42 | `O=C(O[C@H]1CN2CCC1CC2)N1CCc2ccccc2[C@@H]1c1ccccc1` | ICS | 5.623 | inhibitor, partial curve, poor fit |
| 43 | `O=C(O[C@H]1CN2CCC1CC2)N1CCc2ccccc2[C@@H]1c1ccccc1` | CP237 | 2.818 | inhibitor, partial curve |
| 44 | `O=C(O[C@H]1CN2CCC1CC2)N1CCc2ccccc2[C@@H]1c1ccccc1` | P93_24 | 3.548 | inhibitor, partial curve |
| 45 | `O=C(O[C@H]1CN2CCC1CC2)N1CCc2ccccc2[C@@H]1c1ccccc1` | AA1029 | 4.467 | inhibitor, partial curve |
| 46 | `O=C(O[C@H]1CN2CCC1CC2)N1CCc2ccccc2[C@@H]1c1ccccc1` | ECU | 5.012 | inhibitor, partial curve |
| 47 | `O=C(O[C@H]1CN2CCC1CC2)N1CCc2ccccc2[C@@H]1c1ccccc1` | C2A | 12.59 | inhibitor, single point |
| 48 | `O=C(O[C@H]1CN2CCC1CC2)N1CCc2ccccc2[C@@H]1c1ccccc1` | TAB165 | 10 | inhibitor, partial curve |
| 49 | `O=C(O[C@H]1CN2CCC1CC2)N1CCc2ccccc2[C@@H]1c1ccccc1` | CP335 | 5.358 | inhibitor, partial curve, poor fit |
| 50 | `O=C(O[C@H]1CN2CCC1CC2)N1CCc2ccccc2[C@@H]1c1ccccc1` | CP256 | 5.012 | inhibitor, partial curve |

Some entries from above, unchanged:

{"compound": "O=C(O[C@H]1CN2CCC1CC2)N1CCc2ccccc2[C@@H]1c1ccccc1", "tested on / at": "CP215", "fitted potency (µM)": "8.492", "curve as filed": "inhibitor, partial curve"}
{"compound": "O=c1[nH]c2ccccc2n1C1CCN(CCCC(c2ccc(F)cc2)c2ccc(F)cc2)CC1", "tested on / at": "CP211", "fitted potency (µM)": "0.012", "curve as filed": "inhibitor, full curve, poor fit"}
{"compound": "O=C(O[C@H]1CN2CCC1CC2)N1CCc2ccccc2[C@@H]1c1ccccc1", "tested on / at": "P93_24", "fitted potency (µM)": "3.548", "curve as filed": "inhibitor, partial curve"}